Test results published in paper PMC7983404.
No constants are given. Whether binding was seen depends on the method and setting. In cells and extracts the contact can be indirect. Some entries that bind do so weakly or less than the wild type. Tags and fused reporters may be left off the sequences shown.

T1: GST-fused Pita 95–302 aa fragment (Drosophila melanogaster) (UniProt Q95RQ8)
T1 sequence: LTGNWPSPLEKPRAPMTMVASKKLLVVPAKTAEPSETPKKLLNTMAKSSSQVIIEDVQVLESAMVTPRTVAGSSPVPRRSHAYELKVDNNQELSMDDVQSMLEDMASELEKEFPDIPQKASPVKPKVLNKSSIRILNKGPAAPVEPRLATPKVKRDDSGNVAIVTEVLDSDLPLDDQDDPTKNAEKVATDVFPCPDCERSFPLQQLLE

T2: CP190 (Drosophila melanogaster) (UniProt Q24478)
T2 sequence: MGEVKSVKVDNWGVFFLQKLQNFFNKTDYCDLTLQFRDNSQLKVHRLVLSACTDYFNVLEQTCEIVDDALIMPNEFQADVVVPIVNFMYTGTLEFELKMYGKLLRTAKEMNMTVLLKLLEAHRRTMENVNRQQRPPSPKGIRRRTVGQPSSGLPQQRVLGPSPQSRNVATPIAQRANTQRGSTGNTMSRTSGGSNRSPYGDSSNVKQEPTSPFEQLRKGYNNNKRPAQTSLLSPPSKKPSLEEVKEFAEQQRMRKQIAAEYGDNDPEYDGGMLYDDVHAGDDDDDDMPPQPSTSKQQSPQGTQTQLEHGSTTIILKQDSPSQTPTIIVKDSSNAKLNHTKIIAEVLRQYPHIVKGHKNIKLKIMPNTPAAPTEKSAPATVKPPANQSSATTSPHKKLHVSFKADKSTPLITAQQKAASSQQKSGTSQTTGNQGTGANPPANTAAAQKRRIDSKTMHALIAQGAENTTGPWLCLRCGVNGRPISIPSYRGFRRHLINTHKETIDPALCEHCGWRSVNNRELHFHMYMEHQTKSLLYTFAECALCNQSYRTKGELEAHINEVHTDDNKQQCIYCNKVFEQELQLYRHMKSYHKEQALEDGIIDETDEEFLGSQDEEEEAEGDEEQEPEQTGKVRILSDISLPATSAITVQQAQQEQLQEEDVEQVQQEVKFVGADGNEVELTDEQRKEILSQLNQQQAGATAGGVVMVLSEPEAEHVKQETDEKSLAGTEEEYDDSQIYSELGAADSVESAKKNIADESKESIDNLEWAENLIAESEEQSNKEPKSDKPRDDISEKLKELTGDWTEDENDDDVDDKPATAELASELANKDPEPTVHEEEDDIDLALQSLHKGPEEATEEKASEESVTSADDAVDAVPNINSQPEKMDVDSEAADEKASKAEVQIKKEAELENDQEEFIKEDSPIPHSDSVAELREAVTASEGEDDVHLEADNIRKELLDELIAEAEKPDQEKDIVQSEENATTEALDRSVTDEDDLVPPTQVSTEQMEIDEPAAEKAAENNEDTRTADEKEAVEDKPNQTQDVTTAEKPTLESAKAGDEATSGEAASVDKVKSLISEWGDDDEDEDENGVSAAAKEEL


Assays:
[1] = target: T1, GST-fused Pita 95–302 aa fragment (Drosophila melanogaster); assay: pull-down; GST-pull-down (glutathione agarose, buffer C: 20 mM Tris-HCl pH 7.5, 150 mM NaCl, 10 mM MgCl2, 0.1 mM ZnCl2, 0.1% NP40, 10% glycerol; washes with 500 mM NaCl; +4 °C) and 6×His-pulldown (Zn-IDA resin, buffer A with 400 mM NaCl) of lysate of BL21 cells co-expressing GST-Pita derivatives and 6×His-thioredoxin-CP190[1–126]
[2] = target: T2, CP190 (Drosophila melanogaster); assay: co-IP; extracts of S2 cells co-transfected with 3×FLAG-Pita and CP190 plasmids, immunoprecipitated with anti-CP190 antibodies (nonspecific IgG as control), western blot with anti-FLAG

binding [1] | binding [2] | Binder
binds |  | CP190 BTB domain, CP190[1–126], fused with 6×His-thioredoxin (domain or fragment, UniProt Q24478 1-126) MGEVKSVKVDNWGVFFLQKLQNFFNKTDYCDLTLQFRDNSQLKVHRLVLSACTDYFNVLEQTCEIVDDALIMPNEFQADVVVPIVNFMYTGTLEFELKMYGKLLRTAKEMNMTVLLKLLEAHRRTM
 | binds | Pita^wt tagged with 3×FLAG (protein, UniProt Q95RQ8 1-683) MAAKLEVREAMLTEKRVCRFCLTEQKLASIFEENPRVKTTANLPLQIMAITAIEVYAGDGMPGHICLECRLLFEHCYRFKQMCKRAETLLRQYPLTGNWPSPLEKPRAPMTMVASKKLLVVPAKTAEPSETPKKLLNTMAKSSSQVIIEDVQVLESAMVTPRTVAGSSPVPRRSHAYELKVDNNQELSMDDVQSMLEDMASELEKEFPDIPQKASPVKPKVLNKSSIRILNKGPAAPVEPRLATPKVKRDDSGNVAIVTEVLDSDLPLDDQDDPTKNAEKVATDVFPCPDCERSFPLQQLLEIHRLNHTRSRSFQCLLCEKSFFSKYDLAKHNFVHTGERPFKCAICSKAFTRKALLHRHERTHTDVPKFICVYCEKPFLSRQEMEKHAERHQKKRPFQCGVCTKSFAFKQGLERHETVHSTNLPFPCQHCERSFSTASKLARHLVAHAGKRAYPCKYCHKSYMLSHHLSRHLRTHTQTSDASFVCSECKVSYSNYNDLLDHALIHATASLKCPMCRKQIEDIDSVESHMDQHKQSERHACEFCDHIFLTQKCLQRHIEDDHVVEMEPYQNEFEDDGEGEGGVDEKEEHLDDFEDMDNVKQEEFVTEYLEDDALYEDHLDDSDESFTPPPPKQRKTNPPKDAQQSVRQTRSRDAQRITQKTGKNEGKPHHKLERNLKNRRSAK
 | no binding | Pita^ΔCP1 tagged with 3×FLAG (deletion of the 13 aa core) (protein, UniProt Q95RQ8) MAAKLEVREAMLTEKRVCRFCLTEQKLASIFEENPRVKTTANLPLQIMAITAIEVYAGDGMPGHICLECRLLFEHCYRFKQMCKRAETLLRQYPLTGNWPSPLEKPRAPMTMVASKKLLVVPAKTAEPSETPKKLLNTMAKSSSQVIIEDVQVLESAMVTPRTVAGSSPVPRRSHAYELKVDNNQELSMDDVQSMLEDMASELEKEFPDIPQKASPVKPGPAAPVEPRLATPKVKRDDSGNVAIVTEVLDSDLPLDDQDDPTKNAEKVATDVFPCPDCERSFPLQQLLEIHRLNHTRSRSFQCLLCEKSFFSKYDLAKHNFVHTGERPFKCAICSKAFTRKALLHRHERTHTDVPKFICVYCEKPFLSRQEMEKHAERHQKKRPFQCGVCTKSFAFKQGLERHETVHSTNLPFPCQHCERSFSTASKLARHLVAHAGKRAYPCKYCHKSYMLSHHLSRHLRTHTQTSDASFVCSECKVSYSNYNDLLDHALIHATASLKCPMCRKQIEDIDSVESHMDQHKQSERHACEFCDHIFLTQKCLQRHIEDDHVVEMEPYQNEFEDDGEGEGGVDEKEEHLDDFEDMDNVKQEEFVTEYLEDDALYEDHLDDSDESFTPPPPKQRKTNPPKDAQQSVRQTRSRDAQRITQKTGKNEGKPHHKLERNLKNRRSAK
